These are yes or no findings as the source states them, for the method shown. In cells and extracts the contact can be indirect. Some results given as binding are weak or reduced against the parent protein; the word gives no strength.

Protein sequences, listed by entry. Tags and fused reporters are not part of them.
UniProt Q9UDY8: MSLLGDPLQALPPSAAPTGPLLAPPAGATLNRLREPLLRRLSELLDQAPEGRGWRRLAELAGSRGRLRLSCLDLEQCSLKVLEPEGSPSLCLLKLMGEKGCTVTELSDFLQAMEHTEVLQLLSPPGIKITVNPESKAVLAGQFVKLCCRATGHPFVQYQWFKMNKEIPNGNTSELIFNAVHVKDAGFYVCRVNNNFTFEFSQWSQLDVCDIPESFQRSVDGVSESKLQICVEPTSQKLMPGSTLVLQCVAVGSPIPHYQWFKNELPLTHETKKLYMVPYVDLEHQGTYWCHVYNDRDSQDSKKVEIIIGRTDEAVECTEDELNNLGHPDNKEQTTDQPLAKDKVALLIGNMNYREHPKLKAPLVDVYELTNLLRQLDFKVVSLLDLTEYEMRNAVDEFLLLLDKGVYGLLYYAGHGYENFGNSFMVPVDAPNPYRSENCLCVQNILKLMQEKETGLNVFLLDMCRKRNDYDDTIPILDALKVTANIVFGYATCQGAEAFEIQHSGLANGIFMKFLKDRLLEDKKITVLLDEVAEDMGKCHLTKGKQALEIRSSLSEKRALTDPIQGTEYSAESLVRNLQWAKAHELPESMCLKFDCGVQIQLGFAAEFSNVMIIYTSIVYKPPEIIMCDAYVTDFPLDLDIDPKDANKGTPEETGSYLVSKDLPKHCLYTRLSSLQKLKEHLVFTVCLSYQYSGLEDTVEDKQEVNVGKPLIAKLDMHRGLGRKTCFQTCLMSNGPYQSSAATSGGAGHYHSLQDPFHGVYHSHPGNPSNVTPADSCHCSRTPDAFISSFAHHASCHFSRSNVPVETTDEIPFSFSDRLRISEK
UniProt Q13489: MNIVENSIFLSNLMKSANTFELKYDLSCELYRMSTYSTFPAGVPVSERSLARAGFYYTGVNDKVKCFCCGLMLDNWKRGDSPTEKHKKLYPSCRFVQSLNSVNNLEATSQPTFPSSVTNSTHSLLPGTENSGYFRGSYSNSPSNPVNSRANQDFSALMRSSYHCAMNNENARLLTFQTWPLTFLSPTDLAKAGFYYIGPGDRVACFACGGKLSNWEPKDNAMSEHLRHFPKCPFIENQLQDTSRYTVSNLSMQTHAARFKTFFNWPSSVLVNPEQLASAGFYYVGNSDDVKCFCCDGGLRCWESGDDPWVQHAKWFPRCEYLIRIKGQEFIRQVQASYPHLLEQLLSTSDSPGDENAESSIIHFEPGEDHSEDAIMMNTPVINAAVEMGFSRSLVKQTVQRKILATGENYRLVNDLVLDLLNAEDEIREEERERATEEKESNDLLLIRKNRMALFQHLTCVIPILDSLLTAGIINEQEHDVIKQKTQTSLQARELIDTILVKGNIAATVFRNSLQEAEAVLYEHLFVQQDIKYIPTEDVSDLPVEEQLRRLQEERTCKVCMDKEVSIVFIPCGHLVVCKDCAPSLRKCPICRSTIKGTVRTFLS

The source of these data is article PMC2652110.

The target of one test is MALT1, Flag-bio-tagged (UniProt Q9UDY8). As to the kind of experiment: pull-down; biotin-immunoprecipitation (bio-IP): Flag-bio-tagged bait transiently expressed in HEK-293T with BirA (in Fig 3A together with HA-Ub), non-denaturing NDLB lysate, captured on streptavidin-coated paramagnetic beads; immunoblot for endogenous BCL10 and TRAF6. Background: A western blot detects proteins with antibodies after separation by electrophoresis.

The target of test [1] is API2, full-length, Flag-bio-tagged (UniProt Q13489). The description is as above.

B1: BCL10, endogenous in HEK-293T (protein, UniProt O95999 1-233)
chain: MEPTAPSLTEEDLTEVKKDALENLRVYLCEKIIAERHFDHLRAKKILSREDTEEISCRTSSRKRAGKLLDYLQENPKGLDTLVESIRREKTQNFLIQKITDEVLKLRNIKLEHLKGLKCSSCEPFPDGATNNLSRSNSDESNFSEKLRASTVMYHPEGESSTTPFFSTNSSLNLPVLEVGRTENTIFSSTTLPRPGDPGAPPLPPDLQLEEEGTCANSSEMFLPLRSRTVSRQ
B1: the binding result is “binds” in the test with MALT1, Flag-bio-tagged and “no binding” in test [1].
